Measurements taken from the supplement of paper PMC10849652.
Some of the results follow.

The chains behind the UniProt entries cited, without tags or fusion partners. Where a name states a change or a piece, a line headed by the entry shows the natural chain unless it says otherwise.
UniProt O15258: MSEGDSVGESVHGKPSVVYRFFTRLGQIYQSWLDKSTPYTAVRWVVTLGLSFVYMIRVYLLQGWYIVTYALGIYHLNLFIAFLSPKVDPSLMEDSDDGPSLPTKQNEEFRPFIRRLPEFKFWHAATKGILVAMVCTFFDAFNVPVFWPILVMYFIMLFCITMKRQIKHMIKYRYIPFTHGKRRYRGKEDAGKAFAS
UniProt Q8IXI1, whole entry, looked up: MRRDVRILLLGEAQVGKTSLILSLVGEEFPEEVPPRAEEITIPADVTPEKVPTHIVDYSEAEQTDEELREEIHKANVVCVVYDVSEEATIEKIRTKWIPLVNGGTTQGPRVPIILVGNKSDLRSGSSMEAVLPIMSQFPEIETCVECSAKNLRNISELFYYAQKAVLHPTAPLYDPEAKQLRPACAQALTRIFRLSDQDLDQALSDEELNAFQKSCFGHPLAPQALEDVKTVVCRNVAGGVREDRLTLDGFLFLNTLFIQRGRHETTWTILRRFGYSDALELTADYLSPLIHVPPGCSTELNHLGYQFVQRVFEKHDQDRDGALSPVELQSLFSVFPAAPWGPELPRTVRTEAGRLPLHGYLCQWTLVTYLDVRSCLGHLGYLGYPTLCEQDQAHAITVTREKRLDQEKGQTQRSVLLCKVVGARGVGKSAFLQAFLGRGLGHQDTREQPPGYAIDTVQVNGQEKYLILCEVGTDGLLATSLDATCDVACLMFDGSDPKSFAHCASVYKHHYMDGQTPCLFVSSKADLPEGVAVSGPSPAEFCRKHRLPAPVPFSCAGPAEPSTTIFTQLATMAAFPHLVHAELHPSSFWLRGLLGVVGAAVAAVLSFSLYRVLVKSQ
UniProt P38159: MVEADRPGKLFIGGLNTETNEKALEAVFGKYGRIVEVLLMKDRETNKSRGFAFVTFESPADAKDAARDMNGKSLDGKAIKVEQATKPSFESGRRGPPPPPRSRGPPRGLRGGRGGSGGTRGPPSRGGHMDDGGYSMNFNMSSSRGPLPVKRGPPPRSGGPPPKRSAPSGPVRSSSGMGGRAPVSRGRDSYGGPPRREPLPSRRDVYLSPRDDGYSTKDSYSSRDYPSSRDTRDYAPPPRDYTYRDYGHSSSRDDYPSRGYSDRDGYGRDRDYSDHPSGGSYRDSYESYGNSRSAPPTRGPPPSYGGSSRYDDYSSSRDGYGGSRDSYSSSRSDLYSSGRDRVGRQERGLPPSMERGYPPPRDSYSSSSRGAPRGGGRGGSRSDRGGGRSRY
UniProt Q9H871: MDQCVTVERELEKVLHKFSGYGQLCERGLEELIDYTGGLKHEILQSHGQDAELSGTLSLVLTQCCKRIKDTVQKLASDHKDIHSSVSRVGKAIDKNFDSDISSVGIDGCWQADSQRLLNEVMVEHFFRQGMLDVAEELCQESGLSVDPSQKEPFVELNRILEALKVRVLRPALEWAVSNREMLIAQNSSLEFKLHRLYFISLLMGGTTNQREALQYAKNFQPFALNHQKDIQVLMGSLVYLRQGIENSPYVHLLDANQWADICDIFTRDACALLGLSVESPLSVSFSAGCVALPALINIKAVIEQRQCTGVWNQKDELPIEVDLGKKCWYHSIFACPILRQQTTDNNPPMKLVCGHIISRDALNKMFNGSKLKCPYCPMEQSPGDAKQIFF
UniProt Q9H920: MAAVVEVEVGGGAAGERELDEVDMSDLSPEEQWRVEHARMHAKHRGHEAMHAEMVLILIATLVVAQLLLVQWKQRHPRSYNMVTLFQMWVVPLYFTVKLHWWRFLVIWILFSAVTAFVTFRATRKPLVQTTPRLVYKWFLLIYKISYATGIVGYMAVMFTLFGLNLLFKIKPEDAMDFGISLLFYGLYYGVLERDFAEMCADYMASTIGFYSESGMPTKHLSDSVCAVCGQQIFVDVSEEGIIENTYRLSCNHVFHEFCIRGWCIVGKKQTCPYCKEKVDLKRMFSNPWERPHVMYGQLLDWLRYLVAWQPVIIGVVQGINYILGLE
UniProt Q96NA2: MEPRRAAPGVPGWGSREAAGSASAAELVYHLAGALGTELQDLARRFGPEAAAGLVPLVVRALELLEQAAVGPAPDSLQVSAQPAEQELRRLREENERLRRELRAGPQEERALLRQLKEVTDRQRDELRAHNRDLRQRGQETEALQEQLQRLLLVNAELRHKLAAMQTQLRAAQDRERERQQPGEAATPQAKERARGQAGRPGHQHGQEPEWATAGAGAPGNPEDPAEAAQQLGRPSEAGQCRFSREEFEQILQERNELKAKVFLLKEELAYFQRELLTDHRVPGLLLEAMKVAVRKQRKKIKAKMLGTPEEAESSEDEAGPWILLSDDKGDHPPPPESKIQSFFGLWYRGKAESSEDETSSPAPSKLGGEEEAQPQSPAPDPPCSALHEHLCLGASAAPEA
UniProt Q9Y508: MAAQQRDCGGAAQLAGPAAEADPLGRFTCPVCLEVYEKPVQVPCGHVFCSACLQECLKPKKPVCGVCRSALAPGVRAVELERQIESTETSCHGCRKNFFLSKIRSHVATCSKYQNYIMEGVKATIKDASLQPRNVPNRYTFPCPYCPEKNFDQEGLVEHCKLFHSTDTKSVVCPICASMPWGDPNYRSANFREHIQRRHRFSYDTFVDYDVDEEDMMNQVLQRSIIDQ
UniProt Q8TDP1: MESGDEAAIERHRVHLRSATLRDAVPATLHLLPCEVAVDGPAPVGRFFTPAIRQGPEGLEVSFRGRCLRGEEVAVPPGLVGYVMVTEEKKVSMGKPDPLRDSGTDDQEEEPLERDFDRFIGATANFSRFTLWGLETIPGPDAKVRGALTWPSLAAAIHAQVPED
UniProt Q14257: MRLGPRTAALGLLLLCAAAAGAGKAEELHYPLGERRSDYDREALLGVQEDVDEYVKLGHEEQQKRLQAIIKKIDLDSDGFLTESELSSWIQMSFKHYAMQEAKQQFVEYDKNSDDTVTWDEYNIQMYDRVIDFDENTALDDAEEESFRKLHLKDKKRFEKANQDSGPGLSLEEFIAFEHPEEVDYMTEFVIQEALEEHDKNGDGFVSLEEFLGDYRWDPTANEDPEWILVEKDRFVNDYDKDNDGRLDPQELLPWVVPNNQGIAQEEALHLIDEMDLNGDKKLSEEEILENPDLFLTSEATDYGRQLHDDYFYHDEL
UniProt Q9Y3B8: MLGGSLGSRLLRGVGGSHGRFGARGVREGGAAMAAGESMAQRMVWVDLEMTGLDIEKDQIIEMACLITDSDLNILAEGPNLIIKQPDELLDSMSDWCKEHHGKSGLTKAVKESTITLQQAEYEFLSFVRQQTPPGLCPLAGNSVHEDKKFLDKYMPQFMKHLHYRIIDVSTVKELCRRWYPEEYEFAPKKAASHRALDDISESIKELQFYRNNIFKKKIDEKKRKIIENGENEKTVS
UniProt Q9NTX7: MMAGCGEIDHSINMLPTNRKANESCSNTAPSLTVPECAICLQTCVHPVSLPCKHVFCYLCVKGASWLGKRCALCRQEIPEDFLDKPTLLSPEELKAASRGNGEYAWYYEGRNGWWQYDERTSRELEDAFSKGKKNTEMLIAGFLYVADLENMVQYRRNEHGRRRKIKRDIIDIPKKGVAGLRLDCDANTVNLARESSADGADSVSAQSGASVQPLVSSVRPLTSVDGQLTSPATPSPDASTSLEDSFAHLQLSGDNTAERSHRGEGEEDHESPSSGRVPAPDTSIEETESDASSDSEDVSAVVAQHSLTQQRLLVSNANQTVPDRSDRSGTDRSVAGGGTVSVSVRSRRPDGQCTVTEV
UniProt Q8TEB9: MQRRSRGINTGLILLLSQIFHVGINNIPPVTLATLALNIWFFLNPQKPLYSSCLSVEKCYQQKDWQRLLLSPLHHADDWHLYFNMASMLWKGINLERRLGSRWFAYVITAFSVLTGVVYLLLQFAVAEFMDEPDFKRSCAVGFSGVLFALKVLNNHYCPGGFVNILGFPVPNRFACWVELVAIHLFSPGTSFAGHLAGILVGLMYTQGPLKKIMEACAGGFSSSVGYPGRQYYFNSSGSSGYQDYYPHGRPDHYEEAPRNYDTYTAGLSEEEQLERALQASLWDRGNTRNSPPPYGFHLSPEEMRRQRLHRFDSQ
UniProt A6NED2: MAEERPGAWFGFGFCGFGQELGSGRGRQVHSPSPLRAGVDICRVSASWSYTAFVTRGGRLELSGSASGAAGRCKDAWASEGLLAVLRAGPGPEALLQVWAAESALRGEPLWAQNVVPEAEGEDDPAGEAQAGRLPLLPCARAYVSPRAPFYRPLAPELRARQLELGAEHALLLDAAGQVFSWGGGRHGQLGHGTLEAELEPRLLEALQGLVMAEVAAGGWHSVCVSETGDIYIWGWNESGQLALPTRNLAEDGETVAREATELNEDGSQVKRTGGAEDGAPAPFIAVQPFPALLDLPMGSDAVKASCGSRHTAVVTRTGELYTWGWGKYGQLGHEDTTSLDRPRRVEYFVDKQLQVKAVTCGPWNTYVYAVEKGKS
UniProt Q5VTB9: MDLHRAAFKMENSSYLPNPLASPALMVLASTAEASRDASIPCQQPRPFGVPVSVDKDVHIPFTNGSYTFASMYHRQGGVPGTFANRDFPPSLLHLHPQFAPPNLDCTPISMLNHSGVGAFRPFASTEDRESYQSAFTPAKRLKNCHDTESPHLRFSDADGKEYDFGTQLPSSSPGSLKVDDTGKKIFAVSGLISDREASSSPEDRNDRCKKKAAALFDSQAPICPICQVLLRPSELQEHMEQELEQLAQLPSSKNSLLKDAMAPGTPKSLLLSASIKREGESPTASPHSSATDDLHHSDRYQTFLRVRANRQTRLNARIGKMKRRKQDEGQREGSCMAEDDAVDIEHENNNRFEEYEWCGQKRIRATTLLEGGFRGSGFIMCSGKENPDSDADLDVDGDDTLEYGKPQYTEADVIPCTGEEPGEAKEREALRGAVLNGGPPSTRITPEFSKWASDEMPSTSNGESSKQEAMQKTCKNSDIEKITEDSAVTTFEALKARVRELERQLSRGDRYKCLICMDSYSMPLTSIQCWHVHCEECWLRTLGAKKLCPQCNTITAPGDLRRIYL
UniProt O43665: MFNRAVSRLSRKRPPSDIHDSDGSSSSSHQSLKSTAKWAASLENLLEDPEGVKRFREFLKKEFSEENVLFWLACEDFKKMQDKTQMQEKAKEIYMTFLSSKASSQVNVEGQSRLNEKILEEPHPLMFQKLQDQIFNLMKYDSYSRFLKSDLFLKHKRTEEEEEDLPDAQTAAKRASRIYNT
UniProt Q8WZ73: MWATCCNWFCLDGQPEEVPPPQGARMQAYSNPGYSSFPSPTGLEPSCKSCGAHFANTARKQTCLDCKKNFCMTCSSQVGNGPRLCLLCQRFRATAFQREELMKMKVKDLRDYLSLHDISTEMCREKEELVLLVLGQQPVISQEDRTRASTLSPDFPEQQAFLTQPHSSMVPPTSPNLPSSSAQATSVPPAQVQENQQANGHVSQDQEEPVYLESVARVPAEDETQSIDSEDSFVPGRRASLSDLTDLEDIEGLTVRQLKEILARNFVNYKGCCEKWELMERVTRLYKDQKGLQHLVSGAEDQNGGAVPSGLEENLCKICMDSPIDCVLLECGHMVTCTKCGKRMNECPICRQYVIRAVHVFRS
UniProt Q9P0P0: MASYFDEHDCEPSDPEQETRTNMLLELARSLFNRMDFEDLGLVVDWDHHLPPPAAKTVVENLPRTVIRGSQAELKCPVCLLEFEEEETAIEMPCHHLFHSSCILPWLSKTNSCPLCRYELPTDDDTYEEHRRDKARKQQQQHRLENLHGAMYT
UniProt P34096: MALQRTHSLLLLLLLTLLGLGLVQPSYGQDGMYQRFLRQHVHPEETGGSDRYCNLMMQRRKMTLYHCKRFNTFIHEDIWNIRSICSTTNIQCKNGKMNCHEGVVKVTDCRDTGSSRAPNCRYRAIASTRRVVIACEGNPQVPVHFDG
UniProt Q8NC42: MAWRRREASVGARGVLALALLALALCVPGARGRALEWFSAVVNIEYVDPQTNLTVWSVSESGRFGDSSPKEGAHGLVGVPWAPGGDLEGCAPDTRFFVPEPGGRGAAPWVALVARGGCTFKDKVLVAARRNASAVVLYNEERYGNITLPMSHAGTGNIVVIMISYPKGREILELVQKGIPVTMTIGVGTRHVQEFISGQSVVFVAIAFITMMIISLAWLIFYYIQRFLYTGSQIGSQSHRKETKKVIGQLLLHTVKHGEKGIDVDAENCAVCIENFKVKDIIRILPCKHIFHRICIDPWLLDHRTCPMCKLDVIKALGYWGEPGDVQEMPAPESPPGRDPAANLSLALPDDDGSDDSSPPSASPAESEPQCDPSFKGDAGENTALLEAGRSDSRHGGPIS
UniProt P40937, whole entry, looked up: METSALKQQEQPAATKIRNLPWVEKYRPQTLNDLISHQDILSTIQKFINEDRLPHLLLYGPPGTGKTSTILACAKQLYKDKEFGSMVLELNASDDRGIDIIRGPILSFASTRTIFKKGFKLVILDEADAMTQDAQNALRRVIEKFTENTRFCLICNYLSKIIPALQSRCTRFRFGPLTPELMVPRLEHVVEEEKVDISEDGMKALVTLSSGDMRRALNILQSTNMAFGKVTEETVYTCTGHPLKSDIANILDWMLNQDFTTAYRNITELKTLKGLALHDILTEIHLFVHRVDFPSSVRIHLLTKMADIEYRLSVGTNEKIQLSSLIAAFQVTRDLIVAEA

Experiments:
Test in all cases: log2 fold change, soluble protein after heating vs DMSO (PISA); higher = thermal stabilisation; K562 cells, 10 uM, 30 min; active = over 0.2 and 3.5 SD of the protein, either way, in both replicates (recomputed)
[1] = compound: CS(=O)(=O)c1ccc(-c2cnc(N)c(C(=O)Nc3ccccc3)n2)cc1
Outline: (§1)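 Soluble protein was quantified by TMTpro 16plex LC-MS/MS after channel sums were equalised. It was obtained as the supernatant after 21,000xg for 90 min from pooled aliquots of K562 cells (2×10^6 cells/mL, 10 μM compound, 30 min) heated for 3 min across 48°C-58°C and extracted in PBS with 0.5% NP-40 at 4°C. Thermal stability values are relative to control samples and come from duplicates. They are given as log2 fold changes.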

crizotinib = compound: C[C@@H](Oc1cc(-c2cnn(C3CCNCC3)c2)cnc1N)c1c(Cl)ccc(F)c1Cl [crizotinib]
Outline: as §1

[2] = compound: C[C@@H]1COCCN1C2=NC(=NC(=C2)C3(CC3)S(=O)(=O)C)C4=C5C=CNC5=CC=C4
Outline: as §1

[3] = compound: C[C@H](C1=CC=C(C=C1)C(=O)NC2=C3C=CNC3=NC=C2)N
Outline: as §1

duvelisib = compound: C[C@H](Nc1ncnc2nc[nH]c12)c1cc2cccc(Cl)c2c(=O)n1-c1ccccc1 [duvelisib]
Outline: as §1

gandotinib = compound: Cc1cc(Nc2cc(CN3CCOCC3)c3nc(C)c(Cc4ccc(Cl)cc4F)n3n2)n[nH]1 [gandotinib]
Outline: as §1

tozasertib = compound: Cc1cc(Nc2cc(N3CCN(C)CC3)nc(Sc3ccc(NC(=O)C4CC4)cc3)n2)n[nH]1 [tozasertib]
Outline: as §1

[4] = compound: Cc1cc(SCc2sc(-c3ccc(C(F)(F)F)cc3)nc2C)ccc1OCC(=O)O
Outline: as §1

doramapimod = compound: Cc1ccc(-n2nc(C(C)(C)C)cc2NC(=O)Nc2ccc(OCCN3CCOCC3)c3ccccc23)cc1 [doramapimod]
Outline: as §1

ispinesib = compound: Cc1ccc(C(=O)N(CCCN)[C@@H](c2nc3cc(Cl)ccc3c(=O)n2Cc2ccccc2)C(C)C)cc1 [ispinesib]
Outline: as §1

Measured: log2 fold change

RER1 (UniProt O15258)
inactive: [1] 0.034 | crizotinib 0.039 | [2] -0.005 | [3] -0.069 | duvelisib 0.027 | gandotinib -0.175 | tozasertib -0.008 | [4] 0.027 | doramapimod -0.026 | ispinesib -0.013

RHOT2 (UniProt Q8IXI1)
inactive: [1] 0.054 | crizotinib -0.021 | [2] 0.173 | [3] 0.042 | duvelisib 0.02 | gandotinib -0.095 | tozasertib 0.012 | [4] 0.094 | doramapimod 0.042 | ispinesib -0.123

RBMX (UniProt P38159)
inactive: [1] -0.153 | crizotinib 0.072 | [2] -0.435 | [3] 0.272 | duvelisib -0.069 | gandotinib 0.18 | tozasertib 0.096 | [4] 0.048 | doramapimod 0.045 | ispinesib -0.104

RHOXF2B (UniProt P0C7M4)
inactive: [1] 0.203

RBPJ (UniProt Q06330)
inactive: [1] 0.014 | crizotinib 0.09 | [2] -0.004 | [3] 0.044 | duvelisib 0.101 | gandotinib -0.066 | tozasertib -0.021 | [4] -0.017 | doramapimod -0.007 | ispinesib -0.024

RMND5A (UniProt Q9H871)
inactive: [1] 0.002 | crizotinib 0.046 | [2] -0.036 | [3] 0.025 | duvelisib 0.024 | gandotinib -0.067 | tozasertib 0.052 | [4] 0.027 | doramapimod 0.093 | ispinesib -0.05

RNF121 (UniProt Q9H920)
inactive: [1] 0.078 | crizotinib -0.012 | [2] 0.054 | [3] -0.071 | duvelisib 0.01 | gandotinib -0.07 | tozasertib -0.017 | [4] 0.039 | doramapimod 0.016 | ispinesib 0.026

RELN (UniProt P78509)
inactive: [1] -0.001 | crizotinib -0.018 | [2] -0.098 | [3] 0.138 | duvelisib -0.074 | gandotinib 0.091 | tozasertib 0.059 | [4] -0.022 | doramapimod 0.15 | ispinesib 0.042

RIPK1 (UniProt Q13546)
active: tozasertib 1.05
inactive: [1] 0.058 | crizotinib 0.274 | [2] -0.01 | [3] 0.09 | gandotinib 0.301 | [4] 0.118 | doramapimod 0.031 | ispinesib -0.155

RILP (UniProt Q96NA2)
inactive: [1] -0.005 | crizotinib -0.007 | [2] 0.125 | [3] -0.072 | duvelisib -0.028 | gandotinib -0.082 | tozasertib 0.023 | [4] 0.061 | doramapimod -0.007 | ispinesib 0.004

RNF114 (UniProt Q9Y508)
inactive: [1] 0.036 | crizotinib 0.018 | [2] 0.053 | [3] -0.046 | duvelisib 0.089 | gandotinib 0.027 | tozasertib 0.02 | [4] 0.037 | doramapimod -0.065 | ispinesib 0.034

RNASEH2C (UniProt Q8TDP1)
inactive: [1] 0.145 | crizotinib -0.028 | [2] 0.167 | [3] -0.041 | duvelisib 0.081 | gandotinib -0.117 | tozasertib 0.056 | [4] 0.016 | doramapimod 0.023 | ispinesib -0.054

RNF13 (UniProt O43567)
inactive: [1] 0.063 | crizotinib -0.192 | [2] -0.021 | [3] 0.087 | duvelisib -0.053 | tozasertib 0.038 | [4] 0.015 | doramapimod 0.083

RNF167 (UniProt Q9H6Y7)
active: ispinesib -0.668
inactive: [1] 0.087 | crizotinib -0.133 | [2] -0.097 | [3] 0.082 | gandotinib -0.045 | [4] 0.018 | doramapimod -0.056

RENBP (UniProt P51606)
inactive: [1] -0.012 | crizotinib 0.073 | [2] 0.012 | [3] -0.2 | duvelisib 0.087 | gandotinib -0.058 | tozasertib -0.01 | [4] 0 | doramapimod 0.017 | ispinesib 0.016

RCN2 isoform 2 (UniProt Q14257)
inactive: [1] 0.012 | crizotinib 0.033 | [2] -0.011 | [3] 0.03 | duvelisib -0.017 | gandotinib 0.002 | tozasertib 0.045 | [4] -0.015 | doramapimod -0.009 | ispinesib -0.016

REXO2 (UniProt Q9Y3B8)
inactive: [1] -0.009 | crizotinib 0.029 | [2] 0.039 | [3] -0.074 | duvelisib 0.024 | gandotinib 0.005 | tozasertib -0.006 | [4] -0.067 | doramapimod -0.058 | ispinesib 0.009

RNF146 (UniProt Q9NTX7)
inactive: [1] 0.036 | crizotinib 0.028 | [2] 0.229 | [3] 0.166 | duvelisib 0.17 | tozasertib 0.07 | [4] -0.037 | doramapimod 0.01 | ispinesib 0.063

RCL1 (UniProt Q9Y2P8)
inactive: [1] 0.018 | crizotinib -0.082 | [2] -0.289 | [3] 0.462 | duvelisib -0.088 | gandotinib 0.141 | tozasertib 0.064 | [4] 0.061 | doramapimod 0.142 | ispinesib -0.183

RNF126 (UniProt Q9BV68)
inactive: [1] 0.037 | crizotinib 0.105 | [2] 0.087 | [3] 0.031 | duvelisib 0.11 | gandotinib 0.142 | tozasertib 0.023 | [4] 0.015 | doramapimod -0.049 | ispinesib 0.034

RNF20 (UniProt Q5VTR2)
inactive: [1] 0.003 | crizotinib 0.1 | [2] 0.203 | [3] -0.09 | duvelisib -0.014 | gandotinib 0.094 | tozasertib 0.255 | [4] 0.235 | doramapimod 0.018 | ispinesib -0.108

RHBDD1 (UniProt Q8TEB9)
inactive: [1] -0.071 | crizotinib -0.136 | [2] -0.058 | [3] -0.01 | duvelisib -0.022 | gandotinib -0.019 | [4] -0.007 | doramapimod -0.053 | ispinesib -0.147

RCCD1 (UniProt A6NED2)
inactive: [1] 0.04 | crizotinib 0.1 | [2] 0.013 | [3] -0.058 | duvelisib 0.072 | gandotinib -0.078 | tozasertib -0.043 | [4] -0.028 | doramapimod -0.199 | ispinesib 0

RNF220 (UniProt Q5VTB9)
inactive: [1] -0.001 | crizotinib 0.096 | [2] -0.003 | [3] -0.042 | gandotinib -0.012 | [4] -0.011 | doramapimod -0.057 | ispinesib 0.073

RGS10 (UniProt O43665)
inactive: [1] 0.014 | crizotinib -0.045 | [2] 0.012 | [3] -0.231 | gandotinib -0.023 | [4] 0.024 | doramapimod 0.006 | ispinesib 0.017

RNF213 isoform 4 (UniProt Q63HN8)
inactive: [1] -0.027 | crizotinib -0.069 | [2] -0.06 | [3] 0.116 | duvelisib 0.006 | gandotinib -0.003 | tozasertib 0.179 | [4] 0.052 | doramapimod 0.242 | ispinesib -0.158

RFFL (UniProt Q8WZ73)
inactive: [1] 0.03 | crizotinib 0.069 | [2] 0.1 | [3] -0.033 | duvelisib -0.031 | tozasertib -0.133 | [4] 0.2 | doramapimod -0.053 | ispinesib 0.002

RNF181 (UniProt Q9P0P0)
inactive: [1] -0.023 | crizotinib 0.048 | [2] 0.093 | [3] 0.027 | duvelisib 0.048 | gandotinib 0.005 | tozasertib 0 | [4] -0.07 | doramapimod 0.025 | ispinesib -0.001

RING1 (UniProt Q06587)
inactive: [1] -0.038 | crizotinib -0.098 | [2] 0.28 | [3] -0.157 | gandotinib -0.03 | tozasertib 0.078 | doramapimod 0.01 | ispinesib -0.032

RNASE4 (UniProt P34096)
inactive: [1] -0.075 | crizotinib 0.067 | [2] -0.301 | [3] -0.182 | gandotinib -0.259 | tozasertib 0.051 | doramapimod -0.157 | ispinesib -0.045

Two consecutive entries already listed, for reference:
RILP (UniProt Q96NA2)
inactive: [1] -0.005 | crizotinib -0.007 | [2] 0.125 | [3] -0.072 | duvelisib -0.028 | gandotinib -0.082 | tozasertib 0.023 | [4] 0.061 | doramapimod -0.007 | ispinesib 0.004

RNF114 (UniProt Q9Y508)
inactive: [1] 0.036 | crizotinib 0.018 | [2] 0.053 | [3] -0.046 | duvelisib 0.089 | gandotinib 0.027 | tozasertib 0.02 | [4] 0.037 | doramapimod -0.065 | ispinesib 0.034

Continued:

RNF149 (UniProt Q8NC42)
inactive: [1] 0.078 | crizotinib 0.073 | [2] 0.084 | [3] 0.017 | duvelisib 0.031 | gandotinib -0.03 | tozasertib 0.012 | [4] 0.01 | doramapimod -0.029 | ispinesib -0.001

RFC5 (UniProt P40937)
inactive: [1] -0.001 | crizotinib -0.068 | [2] 0.065 | [3] -0.072 | duvelisib -0.004 | gandotinib -0.024 | tozasertib -0.019 | [4] 0.011 | doramapimod -0.017 | ispinesib -0.065
